Experimental findings from paper PMC6337261 (Molecules, 2019) are described below.

This data set is described as follows: general procedure: Fmoc solid-phase peptide synthesis. The note with it: whole synthesis, overall.
For Acetyl-Asp-Glu-Val-Aspψ(CH2NH)-Ala-NH2, the isolated yield turned out to be 27% overall yield.

The substance “Hexynoyl-Asp-Glu-Val-Asp(triazolo)-Ala-Bpa-Gly-NH2” had an isolated yield of 13% overall yield.

“Hexynoyl-Asp-Glu-Val-Aspψ(CH2NH)-Ala-Bpa-NH2” came in with an isolated yield of 7% overall yield.

“Hexynoyl-Asp-Glu-Val-Aspψ(CH2NH)-Ala-NH2” showed an isolated yield of 22% overall yield.

For the substance “Hexynoyl-Asp-Glu-Val-Aspψ(CH2NH)-Ala-p-azido-Phe-NH2”, the isolated yield turned out to be 11% overall yield.

“Hexynoyl-Asp-Glu-Val-Aspψ(CH2NH)-Ala-photoLeu-NH2” had an isolated yield of 8% overall yield.

“Hexynoyl-Bpa-Asp-Glu-Val-Asp(triazolo)-Ala-NH2”: the isolated yield turned out to be 2% overall yield.

Substance “Hexynoyl-Bpa-Asp-Glu-Val-Aspψ(CH2NH)-Ala-NH2” yielded an isolated yield of 4% overall yield.

Turning to “Hexynoyl-p-azido-Phe-Asp-Glu-Val-Aspψ(CH2NH)-Ala-NH2”, the isolated yield is reported as 1% overall yield.

“Hexynoyl-photoLeu-Asp-Glu-Val-Aspψ(CH2NH)-Ala-NH2” yielded an isolated yield of 7% overall yield.
